Values joined by “and” are separate entries in the source; they are usually repeats but may differ in a detail not shown here. Equal values may be shown once. This is one part of the list. Single values are uncertain here, since repeats match poorly.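 HEK293T cells were given each compound shortly before transfection with a reporter in which red mCherry is followed by the SARS-CoV-2 frameshift element and then GFP in the −1 frame, so GFP appears only after frameshifting.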

For the assay, the system named is HEK293T. Description: percent viability (nuclei count) relative to control; higher = more viable cells. The following applies: 10 µM; 24 h.
For the compound `CN1CCOC(c2ccccc2)c2ccccc2C1` (stereo unspecified) [nefopam], the percent viability was found to be 148%.

`CC(C)N(CCC(c1ccccc1)c1ccccc1)C(C)C` [diisopromine]: the percent viability was found to be 194%.

Regarding `COc1cc2c(cc1Cc1cccc(Cl)c1F)c(=O)c(C(=O)O)cn2[C@H](CO)C(C)C` [elvitegravir], the percent viability turned out to be 272%.

As to `COc1c2ccoc2cc2oc(=O)ccc12`, the percent viability came out at 406%.

On to `CCCCc1cc2ccccc2c(OCCN(C)C)n1` [quinisocaine], for which the percent viability turned out to be 116%.

With `COc1ccc2c(c1)c(CC(=O)OCC(=O)O)c(C)n2C(=O)c1ccc(Cl)cc1` [acemetacin], the percent viability is 164% and 273%.

Turning to `CCCCc1oc2ccc(NS(C)(=O)=O)cc2c1C(=O)c1ccc(OCCCN(CCCC)CCCC)cc1` [dronedarone], the percent viability stood at 453%.

Consider `CCC(C)C(C)C1Nc2cc(Cl)c(S(N)(=O)=O)cc2S(=O)(=O)N1` (stereo unspecified) [mebutizide], for which the percent viability turned out to be 216%.

`CNCCc1ccccn1` [betahistine]: the percent viability amounted to 172%.

For `CC(C)(Oc1ccc(Cl)cc1)C(=O)N1CSCC1C(=O)O` (stereo unspecified) [timofibrate], the percent viability worked out at 128%.

`C=C1[C@H](CO)[C@@H](O)C[C@@H]1n1cnc2c(=O)[nH]c(N)nc21` [Baraclude]: the percent viability amounted to 151%.

In the case of `CC1CCCC(C)N1` (stereo unspecified) [nanofin], the percent viability stood at 205%.

On to `O=C(C(Cl)Cl)N(CCO)Cc1ccc(Oc2ccc([N+](=O)[O-])cc2)cc1` [clefamide], for which the percent viability came to 107%.

In the case of `CCN(CC)c1nc(=NN)nc(N(CC)CC)[nH]1` [meladrazine], the percent viability came out at 45.4%.

As to `CCCCCCCCCCCC[N+](C)(C)CCOc1ccccc1` [domiphen], the percent viability came to 126%.

Regarding `NC(=O)C1=CN([C@@H]2O[C@H](COP(=O)(O)OP(=O)(O)OC[C@H]3O[C@@H](n4cnc5c(N)ncnc54)[C@H](O)[C@@H]3O)[C@@H](O)[C@H]2O)C=CC1`, the percent viability turned out to be 159%.

The values are drawn from the supplement of paper PMC8256030.
